Data taken from patent US5405760A, “Process for producing recombinant McrBC endonuclease and cleavage of methylated DNA” (New England Biolabs, Inc., priority 1992, dated 1995).

Test system: McrBC endonuclease (McrBL + McrC) (Escherichia coli K-12)
Test: enzyme reaction in vitro
Settings: 1 mM GTP, purified recombinant protein

Q: With “AGGTTTACCGCAGCTGCCTCGCGCGTTTCGGTGATGACGGTGAAAACCTCTGACACATGCAGCTCCCGGAGACGGTCACAGC (double strand)” as the sequence, how does the functional effect (5mC at AGmCT, both strands at one site, one strand at other, Mg) read?
A: Its functional effect is “active”.

Q: How did the functional effect (5mC at AGmCT, both sites, both strands, 10 mM Mg, Tris pH 7.5) turn out when “AGGTTTACCGCAGCTGCCTCGCGCGTTTCGGTGATGACGGTGAAAACCTCTGACACATGCAGCTCCCGGAGACGGTCACAGC (double strand) [82-bp AluI duplex, m5C at both AluI sites on both strands]” was run?
A: Its functional effect is “active”.

Q: Which functional effect (5mC at AGmCT, both sites on one strand, Mg) does the source give for “AGGTTTACCGCAGCTGCCTCGCGCGTTTCGGTGATGACGGTGAAAACCTCTGACACATGCAGCTCCCGGAGACGGTCACAGC (double strand) [82-bp AluI duplex, m5C in cis (hemimethylated)]” here?
A: The functional effect was “active”.

Q: Which functional effect (5mC at one AGmCT site, one strand, Mg) does the source give for “AGGTTTACCGCAGCTGCCTCGCGCGTTTCGGTGATGACGGTGAAAACCTCTGACACATGCAGCTCCCGGAGACGGTCACAGC (double strand) [82-bp AluI duplex, one m5C on one strand]” here?
A: Its functional effect is “not active”.

Q: Which functional effect (5mC at one AGmCT site, both strands, Mg) does the source give for “AGGTTTACCGCAGCTGCCTCGCGCGTTTCGGTGATGACGGTGAAAACCTCTGACACATGCAGCTCCCGGAGACGGTCACAGC (double strand) [82-bp AluI duplex, one site fully methylated]” here?
A: The functional effect was “not active”.

Q: With “AGGTTTACCGCAGCTGCCTCGCGCGTTTCGGTGATGACGGTGAAAACCTCTGACACATGCAGCTCCCGGAGACGGTCACAGC (double strand) [82-bp AluI duplex, unmethylated]” as the sequence, how does the functional effect (Mg) read?
A: Its functional effect is “not active”.

Q: “AGGTTTACCGCAGCTGCCTCGCGCGTTTCGGTGATGACGGTGAAAACCTCTGACACATGCAGCTCCCGGAGACGGTCACAGC [82-nt AluI single strand]” was tested. Which functional effect (5mC at AGmCT (regardless of methylation), Mg, single-stranded DNA) did it give?
A: The functional effect was “not active”.

Negatives hold for the conditions tested.
